In patent US12293809B2, “Workflow for generating compounds with biological activity against a specific biological target” (INSILICO MEDICINE IP LIMITED, priority 2019, dated 2025):
Like-named read-outs stand apart in the source and are kept apart here.

Assays:
in vitro = conditions: microsomes; for Remaining (*NCF = 60 min) / Remaining (T = 60 min): 1 h
Method: (§1) Cold acetonitrile (ACN) including 100 ng/mL Tolbutamide and 100 ng/mL Labetalol as internal standard (IS) were used for stop solution. 10 μL compound or control working solution/well was added to all plates (T0, T5, T10, T20, T30, T60, NCF60) except matrix blank. Dispense 80 μL/well microsome solution was added to every plate by Apricot, the mixture of microsome solution and compound were incubated at 37° C. for about 10 min. After pre-warming, dispense 10 μL/well NADPH regenerating system was added to every plate by Apricot to start reaction. The solution was then incubated at 37° C. 300 (μL/well) stop solution (cold in 4° C.) was added to terminate the reaction. The sampling plates were shaken for approximately 10 min. Samples were centrifuged at 4000 rpm for 20 min under 4° C. While centrifuging, 8×new 96-well plate were loaded with 300 μL HPLC water, then 100 μL supernatant was transferred and mixed for LC/MS/MS.

[1] = microsomes, 1 h
Method: as §1

SMILES: CCCNCC(O)COc1ccccc1C(=O)CCc1ccccc1 (stereo not drawn) [Propafenone, propafenone]
- CLint scaled (in vitro; CD-1, mouse): 112 L/h/kg
- Remaining (*NCF = 60 min) (in vitro; CD-1, mouse): 88.0%
- Remaining (T = 60 min) (in vitro; CD-1, mouse): 0.4%
- CLint scaled (in vitro; SD, rat): 96.7 L/h/kg
- Remaining (*NCF = 60 min) (in vitro; SD, rat): 87.1%
- Remaining (T = 60 min) (in vitro; SD, rat): 0.4%
- Remaining (*NCF = 60 min) ([1]; Beagle, dog): 101.6%
- Remaining (*NCF = 60 min) ([1]; human): 103.3%
- Remaining (T = 60 min) ([1]; human): 0.7%
